Measured values published in PMC5349888, “Thyroid transcription factor FOXE1 interacts with ETS factor ELK1 to co-regulate TERT”.

Experiments:
FOXE1-Flag (human) = target: T1, FOXE1-Flag (human) (UniProt O00358); experiment: EMSA; details: FOXE1 alone, without ELK1; EMSA: 1 ug protein, 150 mM KCl, 50 ng/uL poly(dI-dC), 10% glycerol, 10 mM Tris pH 7.5, room temperature 30 min; 6% polyacrylamide …; recombinant protein; residues 1-373; protein details: 3xFlag (p3XFlag-CMV-7.1); label: 5' biotin
T1 sequence (looked up): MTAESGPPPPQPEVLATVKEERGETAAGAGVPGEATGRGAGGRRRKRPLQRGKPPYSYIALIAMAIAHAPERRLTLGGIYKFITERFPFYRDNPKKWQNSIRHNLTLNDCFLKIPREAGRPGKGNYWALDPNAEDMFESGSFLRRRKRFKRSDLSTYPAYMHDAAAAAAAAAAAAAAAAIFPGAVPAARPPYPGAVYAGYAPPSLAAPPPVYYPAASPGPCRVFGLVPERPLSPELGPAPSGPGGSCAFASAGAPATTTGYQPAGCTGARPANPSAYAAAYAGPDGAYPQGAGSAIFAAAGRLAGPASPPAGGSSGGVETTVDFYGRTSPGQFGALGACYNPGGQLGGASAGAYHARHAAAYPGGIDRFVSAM

[1] = tested on: FOXE1 A65V-Flag + ELK1-HA; experiment: EMSA; details: ternary complex: A65V abrogates FOXE1 interaction with TERT-bound ELK1, ELK1 itself binds; EMSA: 1 ug protein, 150 mM KCl, 50 ng/uL poly(dI-dC), 10% glycerol, 10 mM Tris pH 7.5, room temperature 30 min; 6% polyacrylamide gel; recombinant protein; protein details: 3xFlag,HA (pCMV-HA-N); label: 5' biotin

“CCCCGCCCCGTCCCGACCCCTCCCGGGTCCCCGGCCCAGCCCCCTCCGGGCCCTCCCAGCCCCTCCCCTTCCTTTCCGCGGCCCC (double strand) [TERT promoter probe]”: no binding (FOXE1-Flag (human)); no binding [1].

A negative result means that nothing was seen under these conditions. For some assays here: Protein sequences can lack the tags named with them.
